Results published in PubChem BioAssay AID623959 (National Center for Advancing Translational Sciences (NCATS), 2012).
Out of some 1,400 compounds screened, fewer than 10 were called active. Another 8% or so got no clear call; they are omitted. The call rests on the fitted dose curve; in most records, active means well fitted curve in the direction sought with a large enough effect; inconclusive means small, poorly fitted or top-dose-only effect, or another doubt; inactive means no such curve, though single readings can be large or run the other way. This is one part of the list.

Protein sequences, listed by entry. Tags and fused reporters are not part of them.
UniProt Q8NER1, whole entry, looked up: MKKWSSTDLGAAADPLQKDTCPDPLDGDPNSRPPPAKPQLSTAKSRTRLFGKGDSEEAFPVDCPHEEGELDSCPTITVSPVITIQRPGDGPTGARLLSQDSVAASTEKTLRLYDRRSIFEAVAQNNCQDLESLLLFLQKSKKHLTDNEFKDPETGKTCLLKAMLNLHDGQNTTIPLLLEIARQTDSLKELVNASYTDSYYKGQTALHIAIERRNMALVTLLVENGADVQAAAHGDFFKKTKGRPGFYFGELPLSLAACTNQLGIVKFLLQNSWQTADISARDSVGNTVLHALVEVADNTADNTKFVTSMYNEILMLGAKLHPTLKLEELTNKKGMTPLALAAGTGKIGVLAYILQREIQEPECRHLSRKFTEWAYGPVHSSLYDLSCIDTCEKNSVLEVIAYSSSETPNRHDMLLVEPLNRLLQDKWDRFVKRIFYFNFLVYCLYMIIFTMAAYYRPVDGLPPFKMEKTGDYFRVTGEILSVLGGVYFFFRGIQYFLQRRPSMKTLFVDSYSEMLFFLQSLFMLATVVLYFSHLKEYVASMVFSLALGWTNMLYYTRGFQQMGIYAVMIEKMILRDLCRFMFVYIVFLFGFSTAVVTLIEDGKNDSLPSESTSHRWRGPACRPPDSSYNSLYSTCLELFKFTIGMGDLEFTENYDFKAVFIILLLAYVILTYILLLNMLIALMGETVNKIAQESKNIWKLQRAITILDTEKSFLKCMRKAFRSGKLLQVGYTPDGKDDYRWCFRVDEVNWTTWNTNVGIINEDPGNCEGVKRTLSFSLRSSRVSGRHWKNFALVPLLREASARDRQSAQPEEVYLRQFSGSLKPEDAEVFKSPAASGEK

The compounds below were run against Transient receptor potential cation channel subfamily V member 1 (Homo sapiens) (UniProt Q8NER1) (assay: qHTS Assay for Compounds that Act as Potentiators of the Vanilloid Receptor 1: Hit Validation). Details: TRPV1-expressing cells, Fluo-8 calcium influx, capsaicin EC20; series mostly up to 42.1 µM; activity change, positive = potentiation: at the top concentration.
How it was run: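 Calcium influx via Fluo-8 fluorescence (480/520 nm) on FDSS: 10 s baseline, 3 min compound read, 2 min read after EC20 capsaicin. TRPV1-expressing cells plated 2000/well, grown overnight at 35.5 °C.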
Further: % of control where 0% means no effect.

Activity change, positive = potentiation, inactive:
Cc1ccc(OCCNC(=O)Cc2ccc(F)cc2)cc1 -38.4%
Cc1ccc(/C=N/Nc2nc(N3CCCCC3)nc(N3CCCCC3)n2)o1 -38.5%
CC(C)(C)C(=O)CSc1ncnc2c1cnn2Cc1ccccc1 -37.9%
CCCCNC(=S)NCc1ccc2[nH]c3c(c2c1)CCCC3 -6.54%
Cn1nc(CC(=O)Nc2ccc3c(c2)OCCO3)c2ccccc2c1=O 4.52%
COc1ccc(N/C=C/C(=O)c2ccc(OC)c(OC)c2)cc1 19.2%
Cc1[nH]c2ccccc2c1C(c1ccncc1)N1CCC(C)CC1 (centres undefined) -33.7%
O=C(CC1C(=O)NCCN1CCCc1ccccc1)NCCc1ccccc1F (centres undefined) -5.54%
CCCCCCC1CCC(C(=O)N2CCOCC2)CC1 (centres undefined) -38.8%
COC(=O)c1ccccc1NC(=O)CSc1nnc(-c2cccnc2)n1N -9.37%
O=C(NCCCN1CCOCC1)C1Cc2c(ccc3ccccc23)O1 (centres undefined) 23%
O=C(C1=C[C@@H](c2ccccc2)C[C@@H](OCc2ccc(CO)cc2)O1)N1CCCCCCC1 -38.9%
CCC1(CC)NC(=O)N(CC(=O)OCC(=O)NC(=O)c2ccccc2)C1=O -8.83%
CCCCNc1c(-c2ccc(OC)c(SC3CCCCC3)c2)nc2cc(C)ccn12 -38.8%
CC(=O)Nc1cc(-c2ccccc2)ccc1O -32.7%
COCCCNC(=O)c1cc2cc([N+](=O)[O-])cc(OC)c2oc1=O -9.84%
O=C(CN1C(=O)/C(=C\c2ccco2)SC1=S)Nc1ccc(O)cc1C(=O)O -0.62%
Nc1cccc(C(=O)OCC(=O)NC2CCCc3ccccc32)c1 (centres undefined) -8.36%
Cc1ccc([N+](=O)[O-])cc1NC(=O)CNC1CCCCC1 -1.58%
O=C(Nc1cccc(S(=O)(=O)N2CCCCC2)c1)c1ccc2ncsc2c1 -30.7%
COCCNC(=O)c1cccc(OC2CCN(Cc3cccc(C(C)=O)c3)CC2)c1 -4.75%
CC1CN(c2nc3c(c(=O)n(Cc4ccc(Cl)cc4)c(=O)n3C)n2C)CC(C)O1 (centres undefined) -38.7%
O=C(NCCN1CCOCC1)C(=O)NCC1OCCCN1S(=O)(=O)c1cc(F)ccc1F (centres undefined) -6.72%
NS(=O)(=O)c1ccc(NC(=O)c2ccc3c(c2)CCCC3)cc1 -39.6%

Fetched one by one from above, 2 records:
Activity change, positive = potentiation, inactive:
CC(=O)Nc1cc(-c2ccccc2)ccc1O -32.7%
O=C(Nc1cccc(S(=O)(=O)N2CCCCC2)c1)c1ccc2ncsc2c1 -30.7%
